{"source": "paper PMC9157009", "about": "“Protein proximity networks and functional evaluation of the casein kinase 1 gamma family reveal unique roles for CK1γ3 in WNT signaling” (The Journal of Biological Chemistry, 2022)", "tested_on": "403 WT human kinases", "experiment": "scanMAX kinome-wide profiling (DiscoverX), whole panel", "assay_type": "binding", "conditions": "profiled at 1 μM against 403 WT kinases", "data": [{"compound": "COc1cnc(COc2ccc(F)c(F)c2)cc1-c1cc2c([nH]1)CCNC2=O", "note": "[FP1-24-2, 2-(2-((3,4-difluorophenoxy)methyl)-5-methoxypyridin-4-yl)-1,5,6,7-tetrahydro-4H-pyrrolo[3,2-c]pyridin-4-one]", "values": [{"measurement": "number of kinases with PoC <10", "result": 14}]}, {"compound": "CN(C)CC(=O)Nc1n[nH]c2ccc(-c3cn(Cc4ccccc4)nn3)cc12", "note": "[AKI00000062a]", "values": [{"measurement": "number of kinases with PoC <10", "result": 17}]}]}
